Assay results reported in publication PMC10501995.

Amino acid sequences for entries named in this document (tags omitted). A change or cut given only in a name is not applied to a line headed by its entry. Chains listed by the source or under a name are the forms on record and can include a tag or linker.
UniProt P40227: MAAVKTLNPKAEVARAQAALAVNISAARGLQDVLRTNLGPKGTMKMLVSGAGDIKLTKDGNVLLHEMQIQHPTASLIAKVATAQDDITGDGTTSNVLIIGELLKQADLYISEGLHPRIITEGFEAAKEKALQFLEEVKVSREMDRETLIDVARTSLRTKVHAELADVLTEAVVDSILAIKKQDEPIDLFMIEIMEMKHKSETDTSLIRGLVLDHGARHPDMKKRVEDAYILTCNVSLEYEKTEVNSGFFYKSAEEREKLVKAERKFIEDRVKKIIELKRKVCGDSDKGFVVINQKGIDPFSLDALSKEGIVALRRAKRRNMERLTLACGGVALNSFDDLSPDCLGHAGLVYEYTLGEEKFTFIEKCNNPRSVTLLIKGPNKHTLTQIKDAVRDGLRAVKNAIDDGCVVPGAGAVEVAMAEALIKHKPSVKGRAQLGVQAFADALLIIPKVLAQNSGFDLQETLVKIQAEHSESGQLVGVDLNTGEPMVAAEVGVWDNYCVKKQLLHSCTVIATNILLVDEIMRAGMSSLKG
UniProt P50990: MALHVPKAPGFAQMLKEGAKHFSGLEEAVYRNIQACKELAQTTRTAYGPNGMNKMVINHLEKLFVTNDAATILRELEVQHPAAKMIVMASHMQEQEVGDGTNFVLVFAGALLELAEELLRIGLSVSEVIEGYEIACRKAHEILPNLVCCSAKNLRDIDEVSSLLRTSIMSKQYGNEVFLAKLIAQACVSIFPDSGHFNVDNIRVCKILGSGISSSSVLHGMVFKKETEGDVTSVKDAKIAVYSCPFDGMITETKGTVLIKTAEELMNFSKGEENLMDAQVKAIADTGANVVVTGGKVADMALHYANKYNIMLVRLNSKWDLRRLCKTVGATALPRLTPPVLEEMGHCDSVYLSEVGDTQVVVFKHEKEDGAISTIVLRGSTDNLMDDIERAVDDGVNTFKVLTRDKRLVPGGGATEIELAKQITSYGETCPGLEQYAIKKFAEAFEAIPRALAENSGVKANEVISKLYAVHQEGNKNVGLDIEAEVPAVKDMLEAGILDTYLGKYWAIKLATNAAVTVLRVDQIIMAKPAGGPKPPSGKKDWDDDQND
HERC2 (endogenous, rabbit reticulocyte lysate) (G1SRN9, form named): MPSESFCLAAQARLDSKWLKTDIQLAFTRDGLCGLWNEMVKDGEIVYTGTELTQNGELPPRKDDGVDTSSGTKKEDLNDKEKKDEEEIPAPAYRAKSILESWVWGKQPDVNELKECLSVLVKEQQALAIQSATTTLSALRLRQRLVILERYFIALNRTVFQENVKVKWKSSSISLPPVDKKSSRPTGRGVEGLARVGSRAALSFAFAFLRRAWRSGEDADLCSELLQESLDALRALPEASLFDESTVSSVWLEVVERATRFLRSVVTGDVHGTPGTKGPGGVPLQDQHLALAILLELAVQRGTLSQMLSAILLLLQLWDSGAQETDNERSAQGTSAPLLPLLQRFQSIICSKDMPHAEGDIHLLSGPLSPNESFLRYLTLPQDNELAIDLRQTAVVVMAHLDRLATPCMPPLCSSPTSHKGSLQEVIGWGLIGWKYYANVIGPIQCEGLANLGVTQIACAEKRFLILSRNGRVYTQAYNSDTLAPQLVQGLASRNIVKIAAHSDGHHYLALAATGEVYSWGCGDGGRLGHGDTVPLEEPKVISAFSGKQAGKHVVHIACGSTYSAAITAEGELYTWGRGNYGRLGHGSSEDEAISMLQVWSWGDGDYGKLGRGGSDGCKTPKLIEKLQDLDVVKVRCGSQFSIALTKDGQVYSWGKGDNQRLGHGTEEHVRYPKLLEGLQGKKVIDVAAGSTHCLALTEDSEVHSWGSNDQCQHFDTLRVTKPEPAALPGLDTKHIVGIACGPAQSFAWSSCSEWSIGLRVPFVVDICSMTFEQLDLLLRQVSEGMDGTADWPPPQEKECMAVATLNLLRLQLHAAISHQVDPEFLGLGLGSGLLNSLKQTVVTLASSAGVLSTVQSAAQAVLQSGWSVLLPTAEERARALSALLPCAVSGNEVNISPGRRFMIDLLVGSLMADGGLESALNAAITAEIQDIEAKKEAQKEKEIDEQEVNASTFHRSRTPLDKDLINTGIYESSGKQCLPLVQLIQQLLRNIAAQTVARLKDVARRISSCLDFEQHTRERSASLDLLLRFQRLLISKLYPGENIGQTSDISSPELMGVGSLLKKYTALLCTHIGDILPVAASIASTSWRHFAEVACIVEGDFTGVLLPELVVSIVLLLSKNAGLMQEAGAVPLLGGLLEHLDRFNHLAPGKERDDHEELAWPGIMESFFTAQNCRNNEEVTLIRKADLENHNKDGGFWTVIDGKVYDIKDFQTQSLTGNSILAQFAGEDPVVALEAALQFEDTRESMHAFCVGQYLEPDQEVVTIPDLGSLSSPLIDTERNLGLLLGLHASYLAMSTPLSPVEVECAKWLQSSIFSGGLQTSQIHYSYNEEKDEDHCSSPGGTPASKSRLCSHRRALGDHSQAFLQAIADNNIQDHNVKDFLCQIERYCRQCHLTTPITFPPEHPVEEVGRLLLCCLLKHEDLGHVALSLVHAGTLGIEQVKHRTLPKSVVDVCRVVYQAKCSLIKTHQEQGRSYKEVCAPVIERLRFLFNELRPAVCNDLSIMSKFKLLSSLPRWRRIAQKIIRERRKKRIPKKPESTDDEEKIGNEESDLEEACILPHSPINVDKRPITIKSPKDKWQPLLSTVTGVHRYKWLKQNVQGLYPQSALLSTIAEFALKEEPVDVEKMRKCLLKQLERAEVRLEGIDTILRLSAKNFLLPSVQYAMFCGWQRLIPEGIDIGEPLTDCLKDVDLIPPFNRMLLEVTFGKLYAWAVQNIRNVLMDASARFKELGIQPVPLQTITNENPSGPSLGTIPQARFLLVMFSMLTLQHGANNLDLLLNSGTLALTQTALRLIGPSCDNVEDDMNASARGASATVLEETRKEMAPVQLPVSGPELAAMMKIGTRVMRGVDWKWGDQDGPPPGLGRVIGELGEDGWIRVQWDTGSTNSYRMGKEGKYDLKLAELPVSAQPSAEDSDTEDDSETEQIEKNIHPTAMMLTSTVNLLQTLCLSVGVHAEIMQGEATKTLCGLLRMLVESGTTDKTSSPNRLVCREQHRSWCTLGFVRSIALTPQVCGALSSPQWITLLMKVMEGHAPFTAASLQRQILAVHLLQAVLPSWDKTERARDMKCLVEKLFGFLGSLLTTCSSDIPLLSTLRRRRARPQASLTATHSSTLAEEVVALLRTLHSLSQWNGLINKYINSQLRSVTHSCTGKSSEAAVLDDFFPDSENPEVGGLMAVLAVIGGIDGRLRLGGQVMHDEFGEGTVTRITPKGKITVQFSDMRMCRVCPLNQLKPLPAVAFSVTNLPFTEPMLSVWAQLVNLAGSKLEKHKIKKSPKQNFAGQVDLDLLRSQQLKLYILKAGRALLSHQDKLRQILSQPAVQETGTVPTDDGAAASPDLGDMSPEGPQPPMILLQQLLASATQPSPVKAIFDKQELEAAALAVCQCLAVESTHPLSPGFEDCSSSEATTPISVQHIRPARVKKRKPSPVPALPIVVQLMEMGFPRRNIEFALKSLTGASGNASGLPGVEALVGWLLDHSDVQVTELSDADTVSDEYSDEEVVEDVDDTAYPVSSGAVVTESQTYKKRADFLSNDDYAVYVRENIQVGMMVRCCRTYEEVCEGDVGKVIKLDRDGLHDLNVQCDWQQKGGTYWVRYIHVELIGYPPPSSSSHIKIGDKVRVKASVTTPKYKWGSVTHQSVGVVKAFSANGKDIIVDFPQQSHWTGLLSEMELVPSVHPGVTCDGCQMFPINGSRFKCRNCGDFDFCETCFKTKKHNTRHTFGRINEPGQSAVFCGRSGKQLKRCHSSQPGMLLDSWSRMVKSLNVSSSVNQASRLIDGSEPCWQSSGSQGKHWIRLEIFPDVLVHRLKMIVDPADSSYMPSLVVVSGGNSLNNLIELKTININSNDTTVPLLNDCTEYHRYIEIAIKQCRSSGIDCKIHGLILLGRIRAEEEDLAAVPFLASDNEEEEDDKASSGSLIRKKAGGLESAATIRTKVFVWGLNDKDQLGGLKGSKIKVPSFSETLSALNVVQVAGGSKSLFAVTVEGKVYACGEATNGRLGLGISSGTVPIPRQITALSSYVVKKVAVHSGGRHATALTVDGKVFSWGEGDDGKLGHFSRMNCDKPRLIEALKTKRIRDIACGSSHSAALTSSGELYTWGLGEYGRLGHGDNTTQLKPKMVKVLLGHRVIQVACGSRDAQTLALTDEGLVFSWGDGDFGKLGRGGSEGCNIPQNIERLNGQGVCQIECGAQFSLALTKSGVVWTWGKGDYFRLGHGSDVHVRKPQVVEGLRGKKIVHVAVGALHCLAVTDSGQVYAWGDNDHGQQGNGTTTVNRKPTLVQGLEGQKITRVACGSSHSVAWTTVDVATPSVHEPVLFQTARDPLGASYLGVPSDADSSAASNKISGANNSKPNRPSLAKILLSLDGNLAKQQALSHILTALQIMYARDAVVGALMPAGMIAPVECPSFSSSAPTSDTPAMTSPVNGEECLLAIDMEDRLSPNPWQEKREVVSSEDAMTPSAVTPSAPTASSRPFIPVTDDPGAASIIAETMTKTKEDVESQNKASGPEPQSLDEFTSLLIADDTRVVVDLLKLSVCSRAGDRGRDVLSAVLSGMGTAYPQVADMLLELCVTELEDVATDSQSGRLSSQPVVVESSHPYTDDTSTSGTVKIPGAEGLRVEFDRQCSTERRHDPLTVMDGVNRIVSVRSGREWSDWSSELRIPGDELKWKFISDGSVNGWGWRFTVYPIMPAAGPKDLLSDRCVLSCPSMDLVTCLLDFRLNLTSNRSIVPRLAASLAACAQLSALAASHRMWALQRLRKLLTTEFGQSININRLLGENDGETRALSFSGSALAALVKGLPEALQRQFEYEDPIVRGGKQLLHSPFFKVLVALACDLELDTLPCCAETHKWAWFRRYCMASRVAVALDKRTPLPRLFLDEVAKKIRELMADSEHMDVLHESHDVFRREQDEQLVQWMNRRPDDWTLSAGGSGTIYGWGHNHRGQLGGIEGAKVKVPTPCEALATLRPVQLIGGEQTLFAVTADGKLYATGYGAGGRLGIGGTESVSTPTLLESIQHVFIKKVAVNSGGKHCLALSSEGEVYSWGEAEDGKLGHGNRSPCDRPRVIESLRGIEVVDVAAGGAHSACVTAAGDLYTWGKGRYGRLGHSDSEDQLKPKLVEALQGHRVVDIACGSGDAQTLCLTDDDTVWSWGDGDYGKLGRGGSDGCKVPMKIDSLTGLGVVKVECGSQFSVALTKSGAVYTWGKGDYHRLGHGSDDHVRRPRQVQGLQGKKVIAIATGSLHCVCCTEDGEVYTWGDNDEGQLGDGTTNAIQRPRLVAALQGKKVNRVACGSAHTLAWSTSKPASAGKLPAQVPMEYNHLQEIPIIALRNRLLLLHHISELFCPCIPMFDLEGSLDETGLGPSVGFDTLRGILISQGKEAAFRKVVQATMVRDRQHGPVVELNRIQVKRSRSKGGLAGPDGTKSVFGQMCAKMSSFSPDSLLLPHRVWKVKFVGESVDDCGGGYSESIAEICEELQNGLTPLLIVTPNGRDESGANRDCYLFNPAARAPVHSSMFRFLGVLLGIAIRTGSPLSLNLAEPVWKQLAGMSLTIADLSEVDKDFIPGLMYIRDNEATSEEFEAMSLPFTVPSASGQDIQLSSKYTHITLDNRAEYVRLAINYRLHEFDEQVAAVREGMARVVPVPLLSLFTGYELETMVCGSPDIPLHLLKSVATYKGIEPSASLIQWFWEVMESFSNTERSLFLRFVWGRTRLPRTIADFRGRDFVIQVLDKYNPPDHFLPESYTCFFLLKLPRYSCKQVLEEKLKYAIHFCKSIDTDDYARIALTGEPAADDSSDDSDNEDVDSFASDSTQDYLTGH

What was measured:
CCT6A-TwinStrep (human) = CCT6A-TwinStrep (human) (UniProt P40227); assay: affinity purification with mass spectrometry; CCT-TwinStrep translated in RRL (600 ul), bound to StrepTactin Sepharose under native conditions, 4 °C 1.5 h, 5 washes in PSB125 (50 mM HEPES-KOH, 125 mM KOAc, 2 mM Mg(OAc)2); label-free quantitative MS against mock, CCT3-3xFLAG and CCT7-3xFLAG controls
CCT8-TwinStrep (human) = CCT8-TwinStrep (human) (UniProt P50990); assay: as above

binding (CCT6A-TwinStrep (human)): no binding
binding (CCT8-TwinStrep (human)): no binding
Substance: HERC2 (endogenous, rabbit reticulocyte lysate) (from UniProt G1SRN9 1-4806) (enzyme)

No constants are given. Whether binding was seen depends on the method and setting. Binding seen in cells or lysates may run through a third protein. Here binding means that the protein was enriched with, or labelled near, the bait; the list need not be complete. A no says only that the protein was not detected with the bait.
